From ChEMBL document CHEMBL1287793, “Green synthesis and biological evaluation of some novel azoles as antimicrobial agents” (2010)

Tested on: Candida albicans
Test: Antimicrobial activity against Candida albicans after 18 to 20 hrs at 37degC by disc diffusion method
Assay type: functional
Method in brief: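 Fungal inoculum of 1 × 10⁶/mL spread on potato dextrose agar. 6 mm filter paper discs received sample dissolved in DMSO. Nystatin at 100 U/disc was the antifungal control. Plates incubated 18–20 h at 37 °C, then the zone of inhibition was measured in mm.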

NYSTATIN
inhibition zone (IZ): 22 mm
